Binding data for two molecules are collected here from publication PMC11873243.

Sequences of proteins named here, by UniProt entry; tags and fusion partners are left off.
UniProt Q13111: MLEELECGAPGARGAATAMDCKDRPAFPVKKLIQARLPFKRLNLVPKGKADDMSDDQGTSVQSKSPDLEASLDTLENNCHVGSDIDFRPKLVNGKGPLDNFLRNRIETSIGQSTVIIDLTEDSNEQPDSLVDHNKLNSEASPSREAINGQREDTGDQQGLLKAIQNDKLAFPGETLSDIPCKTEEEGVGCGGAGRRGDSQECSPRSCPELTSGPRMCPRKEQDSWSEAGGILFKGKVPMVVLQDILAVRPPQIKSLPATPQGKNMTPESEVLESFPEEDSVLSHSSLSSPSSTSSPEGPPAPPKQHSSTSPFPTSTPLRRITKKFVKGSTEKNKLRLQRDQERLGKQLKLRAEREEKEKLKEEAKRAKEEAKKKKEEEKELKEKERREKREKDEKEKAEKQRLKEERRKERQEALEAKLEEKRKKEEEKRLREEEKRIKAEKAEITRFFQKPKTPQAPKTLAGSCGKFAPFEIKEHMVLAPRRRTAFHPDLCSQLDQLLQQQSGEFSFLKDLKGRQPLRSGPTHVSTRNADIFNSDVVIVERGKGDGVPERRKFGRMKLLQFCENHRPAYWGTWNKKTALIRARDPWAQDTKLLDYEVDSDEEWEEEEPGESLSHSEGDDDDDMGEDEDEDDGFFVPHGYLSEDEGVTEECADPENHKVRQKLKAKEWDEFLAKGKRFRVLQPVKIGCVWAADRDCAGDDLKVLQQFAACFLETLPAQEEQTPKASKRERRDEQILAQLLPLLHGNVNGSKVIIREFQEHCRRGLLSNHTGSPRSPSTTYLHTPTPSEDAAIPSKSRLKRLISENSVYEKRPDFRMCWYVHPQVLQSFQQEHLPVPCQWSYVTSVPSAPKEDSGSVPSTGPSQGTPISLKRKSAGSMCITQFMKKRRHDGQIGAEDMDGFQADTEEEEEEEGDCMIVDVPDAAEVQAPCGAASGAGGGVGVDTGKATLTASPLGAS
UniProt P12004: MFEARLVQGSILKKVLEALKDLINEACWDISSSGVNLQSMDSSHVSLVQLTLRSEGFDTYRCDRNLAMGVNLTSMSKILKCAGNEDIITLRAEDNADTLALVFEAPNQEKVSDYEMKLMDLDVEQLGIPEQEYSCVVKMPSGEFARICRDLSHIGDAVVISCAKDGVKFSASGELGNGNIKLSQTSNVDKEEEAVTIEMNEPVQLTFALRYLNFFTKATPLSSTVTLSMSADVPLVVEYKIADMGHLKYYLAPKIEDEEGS
UniProt Q9NS91: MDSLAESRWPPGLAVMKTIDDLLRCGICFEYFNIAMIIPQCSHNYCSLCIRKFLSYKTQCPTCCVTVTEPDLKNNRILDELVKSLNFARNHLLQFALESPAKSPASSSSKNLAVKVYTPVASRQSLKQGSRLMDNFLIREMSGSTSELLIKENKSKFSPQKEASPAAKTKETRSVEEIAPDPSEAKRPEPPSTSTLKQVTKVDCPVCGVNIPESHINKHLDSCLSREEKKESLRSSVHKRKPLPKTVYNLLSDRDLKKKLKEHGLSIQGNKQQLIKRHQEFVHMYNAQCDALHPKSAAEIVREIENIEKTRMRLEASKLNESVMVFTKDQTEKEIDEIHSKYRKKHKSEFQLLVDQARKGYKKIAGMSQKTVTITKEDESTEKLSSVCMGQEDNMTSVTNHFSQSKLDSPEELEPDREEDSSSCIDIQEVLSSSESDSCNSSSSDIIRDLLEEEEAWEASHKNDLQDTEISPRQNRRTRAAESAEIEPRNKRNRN

The target of assay [1] is Chromatin assembly factor 1 subunit A (CHAF1A), endogenous (human (endogenous in KYSE510 and A549)) (UniProt Q13111). In words: proximity ligation; Duolink PLA for CHAF1A and RAD18 in A549 cells.
The target is the same in assay [2]. In words: co-IP; KYSE510 and A549 cell lysates, anti-CHAF1A antibodies and protein A/G magnetic beads, 4 °C overnight; IP buffer 50 mM Tris-HCl pH 7.5, 150 mM NaCl, 0.5% NP-40; blot for RAD18.
Assay [3] deals with proliferating cell nuclear antigen (PCNA), endogenous (human (endogenous in HEK293T and KYSE510)) (UniProt P12004). In words: proximity ligation; Duolink PLA on endogenous proteins in KYSE510 cells (shNC or inducible CHAF1A knockdown), with or without 100 J/m^2 UV for 1 h (Pol η also with HU); CSK extraction with formaldehyde.
The target is the same in assay [4]. Described as above. This is another data set of the same source.

Read-outs that look alike come from different tables or passages of the source. These are yes or no findings as the source states them, for the method shown. Binding seen in cells or lysates may run through a third protein. Some entries that bind do so weakly or less than the wild type.

As for “E3 ubiquitin ligase RAD18, endogenous (from UniProt Q9NS91 1-495) (enzyme)”, the binding entry in assay [1], in assay [2] and in assay [3] was “binds” throughout.

B1: REV1, endogenous (enzyme, UniProt Q9UBZ9 1-1251)
chain: MRRGGWRKRAENDGWETWGGYMAAKVQKLEEQFRSDAAMQKDGTSSTIFSGVAIYVNGYTDPSAEELRKLMMLHGGQYHVYYSRSKTTHIIATNLPNAKIKELKGEKVIRPEWIVESIKAGRLLSYIPYQLYTKQSSVQKGLSFNPVCRPEDPLPGPSNIAKQLNNRVNHIVKKIETENEVKVNGMNSWNEEDENNDFSFVDLEQTSPGRKQNGIPHPRGSTAIFNGHTPSSNGALKTQDCLVPMVNSVASRLSPAFSQEEDKAEKSSTDFRDCTLQQLQQSTRNTDALRNPHRTNSFSLSPLHSNTKINGAHHSTVQGPSSTKSTSSVSTFSKAAPSVPSKPSDCNFISNFYSHSRLHHISMWKCELTEFVNTLQRQSNGIFPGREKLKKMKTGRSALVVTDTGDMSVLNSPRHQSCIMHVDMDCFFVSVGIRNRPDLKGKPVAVTSNRGTGRAPLRPGANPQLEWQYYQNKILKGKAADIPDSSLWENPDSAQANGIDSVLSRAEIASCSYEARQLGIKNGMFFGHAKQLCPNLQAVPYDFHAYKEVAQTLYETLASYTHNIEAVSCDEALVDITEILAETKLTPDEFANAVRMEIKDQTKCAASVGIGSNILLARMATRKAKPDGQYHLKPEEVDDFIRGQLVTNLPGVGHSMESKLASLGIKTCGDLQYMTMAKLQKEFGPKTGQMLYRFCRGLDDRPVRTEKERKSVSAEINYGIRFTQPKEAEAFLLSLSEEIQRRLEATGMKGKRLTLKIMVRKPGAPVETAKFGGHGICDNIARTVTLDQATDNAKIIGKAMLNMFHTMKLNISDMRGVGIHVNQLVPTNLNPSTCPSRPSVQSSHFPSGSYSVRDVFQVQKAKKSTEEEHKEVFRAAVDLEISSASRTCTFLPPFPAHLPTSPDTNKAESSGKWNGLHTPVSVQSRLNLSIEVPSPSQLDQSVLEALPPDLREQVEQVCAVQQAESHGDKKKEPVNGCNTGILPQPVGTVLLQIPEPQESNSDAGINLIALPAFSQVDPEVFAALPAELQRELKAAYDQRQRQGENSTHQQSASASVPKNPLLHLKAAVKEKKRNKKKKTIGSPKRIQSPLNNKLLNSPAKTLPGACGSPQKLIDGFLKHEGPPAEKPLEELSASTSGVPGLSSLQSDPAGCVRPPAPNLAGAVEFNDVKTLLREWITTISDPMEEDILQVVKYCTDLIEEKDLEKLDLVIKYMKRLMQQSVESVWNMAFDFILDNVQVVLQQTYGSTLKVT
On to B1, for which the binding entry in assay [4] is on record as “binds”.
